PubChem BioAssay AID248 (DTP/NCI, 2004)
The list does not hold the whole screen: it is rich in T/C values a quarter to a half above the control, in often repeated tests (any T/C) and in doses without a T/C. Other doses and runs of a compound stand elsewhere. T/C is the treated group as % of the vehicle group. Some doses have a count of surviving animals in place of a T/C: the source files T/C as zero there, which appears to mark a toxic dose or a test without result, not a measured value. Some doses without a T/C left all or most animals alive at the check, yet need not have been tolerated: the source hardly ever lists a survival T/C far under the control, and the zero likely stands for such cases as well. Survivors were counted at the toxicity check, usually on the fifth day, unless a day is given; later deaths do not show. Schedule codes are those of the source, read here as Q, the interval in days (D) or hours (H), X, the number of doses. Some entries hold several experiments; the results are listed from low to high. Where survival is the endpoint, this PubChem deposit counts one and a half times the control or more as active, and values a quarter to a half above the control carry no call in these data; other NCI protocols may use other cut-offs.

Tested on: L1210 leukemia ip in BDF1 mice, survival T/C
Test: NCI In Vivo Anticancer Drug Screen. Data for tumor model L1210 Leukemia (intraperitoneal) in B6D2F1 (BDF1) mice
Details: T/C endpoint: mean survival time, higher T/C = longer survival
[1] = dose: 50.0 mg/kg/injection, schedule: Q01DX009 (ip), vehicle: Klucel (hydroxypropylcellulose) (HPC)
[2] = dose: 200.0 mg/kg/injection, schedule: Q01DX009 (ip), vehicle: Klucel (hydroxypropylcellulose) (HPC)
[3] = dose: 400.0 mg/kg/injection, schedule: Q01DX009 (ip), vehicle: Klucel (hydroxypropylcellulose) (HPC)
[4] = dose: 400.0 mg/kg/injection, schedule: Q04DX003 (ip), vehicle: saline
[5] = dose: 400.0 mg/kg/injection, schedule: Q04DX003 (ip), vehicle: Klucel (hydroxypropylcellulose) (HPC)
[6] = dose: 400.0 mg/kg/injection, schedule: Q04DX003 (ip), vehicle: saline with Tween-80
[7] = dose: 100.0 mg/kg/injection, schedule: Q04DX002 (ip), vehicle: saline with Tween-80
[8] = dose: 100.0 mg/kg/injection, schedule: Q01DX009 (ip), vehicle: saline
[9] = dose: 200.0 mg/kg/injection, schedule: Q01DX009 (ip), vehicle: saline with Tween-80
[10] = dose: 200.0 mg/kg/injection, schedule: Q01DX001 (ip), vehicle: Klucel (hydroxypropylcellulose) (HPC)
[11] = dose: 400.0 mg/kg/injection, schedule: Q01DX001 (ip), vehicle: Klucel (hydroxypropylcellulose) (HPC)

Question: `COc1cc(CC2c3ccccc3CC[N+]2(C)C)c(Oc2cc(CC3c4ccccc4CC[N+]3(C)C)ccc2OC)cc1OC` (centres undefined) was tested. Which survivor count (dose: 6.25 mg/kg/injection, schedule: Q01DX009 (ip), vehicle: Klucel (hydroxypropylcellulose) (HPC)) did it give?
Answer: 3 of 3

Question: What about the survivor count (dose: 12.5 mg/kg/injection, schedule: Q01DX009 (ip), vehicle: Klucel (hydroxypropylcellulose) (HPC)) of the same compound?
Answer: 3 of 3

Question: And the survivor count (dose: 25.0 mg/kg/injection, schedule: Q01DX009 (ip), vehicle: Klucel (hydroxypropylcellulose) (HPC))?
Answer: 0 of 3

Question: And the survivor count [1]?
Answer: 0 of 3

Question: And the survivor count (dose: 100.0 mg/kg/injection, schedule: Q01DX009 (ip), vehicle: Klucel (hydroxypropylcellulose) (HPC))?
Answer: 0 of 3

Question: And the survivor count [2]?
Answer: 0 of 3

Question: For `O=C(O)/C(F)=C/c1ccccc1`, which survivor count (dose: 200.0 mg/kg/injection, schedule: Q01DX001 (ip), vehicle: carboxymethylcellulose (CMC)) is on record?
Answer: 0 of 4

Question: And the survivor count (dose: 400.0 mg/kg/injection, schedule: Q01DX001 (ip), vehicle: carboxymethylcellulose (CMC))?
Answer: 0 of 4

Question: With `O=C(O)CCN(CCC(=O)O)CCC(=O)O` as the compound, how does the T/C (dose: 100.0 mg/kg/injection, schedule: Q01DX009 (ip), vehicle: saline with Tween-80) read?
Answer: 139 % of control

Question: For `CC1CCCC(C)N1C(=O)Nc1cccc(C(F)(F)F)c1` (centres undefined), which survivor count (dose: 400.0 mg/kg/injection, schedule: Q01DX009 (ip), vehicle: gum acacia) is on record?
Answer: 4 of 6

Question: For `O=C1C(c2ccccc2)=S=C2Sc3ccccc3N12`, which survivor count [2] is on record?
Answer: 6 of 6

Question: What about the survivor count [3] of the same compound?
Answer: 4 of 6

Question: With `COc1ccc(CCNC2C3CC4CC(C3)CC2C4)cc1OC` (centres undefined) as the compound, how does the survivor count (dose: 200.0 mg/kg/injection, schedule: Q04DX003 (ip), vehicle: saline) read?
Answer: 1 of 3

Question: And the survivor count [4]?
Answer: 1 of 3

Question: `COc1ccc(/C=C/c2cccc[n+]2C)cc1` was tested. Which survivor count [1] did it give?
Answer: 6 of 6

Question: And the survivor count (dose: 100.0 mg/kg/injection, schedule: Q04DX003 (ip), vehicle: Klucel (hydroxypropylcellulose) (HPC))?
Answer: 2 of 6

Question: What about the survivor count (dose: 200.0 mg/kg/injection, schedule: Q04DX003 (ip), vehicle: Klucel (hydroxypropylcellulose) (HPC)) of the same compound?
Answer: 0 of 6

Question: And the survivor count [5]?
Answer: 0 of 6

Question: With `COc1ccccc1C(C(C)C)C(C)C` as the compound, how does the survivor count [6] read?
Answer: 3 of 6

Question: Which survivor count [7] does the source give for `Cc1ccc(Cl)cc1NC(=O)N1CCN(c2ccccc2)CC1` here?
Answer: 6 of 6

Question: What about the survivor count (dose: 400.0 mg/kg/injection, schedule: Q01DX009 (ip), vehicle: saline with Tween-80) of the same compound?
Answer: 6 of 6

Question: Which survivor count (dose: 300.0 mg/kg/injection, schedule: Q01DX001 (ip), vehicle: carboxymethylcellulose (CMC)) does the source give for `CC(C)/C=C/C1(C(C)C)C(=O)NC(=O)NC1=O` here?
Answer: 2 of 6

Question: With `N=C(N)SCc1ccc(C(=O)Oc2ccc([N+](=O)[O-])cc2)cc1` as the compound, how does the survivor count [8] read?
Answer: 3 of 6

Question: And the survivor count (dose: 200.0 mg/kg/injection, schedule: Q01DX009 (ip), vehicle: saline)?
Answer: 1 of 6

Question: What about the survivor count [4] of the same compound?
Answer: 1 of 6

Question: What does the source list for `NC(=S)N/N=C/c1ccc(OC(=O)C23CC4CC(CC(C4)C2)C3)cn1`?
Answer: survivor count (dose: 220.0 mg/kg/injection, schedule: Q01DX009 (ip), vehicle: saline with Tween-80): 10 of 10; survivor count (dose: 335.0 mg/kg/injection, schedule: Q01DX009 (ip), vehicle: saline with Tween-80): 9 of 10; survivor count (dose: 500.0 mg/kg/injection, schedule: Q01DX009 (ip), vehicle: saline with Tween-80): 9 of 10; survivor count (dose: 750.0 mg/kg/injection, schedule: Q01DX009 (ip), vehicle: saline with Tween-80): 10 of 10; survivor count (dose: 2640.0 mg/kg/injection, schedule: Q01DX001 (ip), vehicle: saline with Tween-80): 10 of 10; survivor count (dose: 4000.0 mg/kg/injection, schedule: Q01DX001 (ip), vehicle: saline with Tween-80): 10 of 10; survivor count (dose: 6000.0 mg/kg/injection, schedule: Q01DX001 (ip), vehicle: saline with Tween-80): 9 of 10; survivor count (dose: 9000.0 mg/kg/injection, schedule: Q01DX001 (ip), vehicle: saline with Tween-80): 3 of 10

Question: `CCOP(=O)(Cc1ccc(Cl)cc1)OCC` was tested. Which survivor count (dose: 400.0 mg/kg/injection, schedule: Q01DX009 (ip), vehicle: carboxymethylcellulose (CMC)) did it give?
Answer: 0 of 3 and 0 of 6

Question: And the survivor count (dose: 400.0 mg/kg/injection, schedule: Q04DX003 (ip), vehicle: carboxymethylcellulose (CMC))?
Answer: 0 of 6

Question: With `O=C[N]([Hg][Cl])c1ccccc1` as the compound, how does the survivor count (dose: 3.13 mg/kg/injection, schedule: Q01DX009 (ip), vehicle: saline) read?
Answer: 6 of 6

Question: And the survivor count (dose: 6.25 mg/kg/injection, schedule: Q01DX009 (ip), vehicle: saline)?
Answer: 4 of 6

Question: And the survivor count [7]?
Answer: 0 of 3

Question: What about the survivor count (dose: 200.0 mg/kg/injection, schedule: Q04DX002 (ip), vehicle: saline with Tween-80) of the same compound?
Answer: 0 of 3

Question: And the survivor count (dose: 400.0 mg/kg/injection, schedule: Q04DX002 (ip), vehicle: saline with Tween-80)?
Answer: 0 of 3

Question: With `CCCCNC(C)(C)C(SSSC(c1ccco1)C(C)(C)NCCCC)c1ccco1` (centres undefined) as the compound, how does the survivor count [9] read?
Answer: 0 of 6

Question: And the survivor count [4]?
Answer: 0 of 6

Question: For `CNC(=O)Nc1ccc(Cl)cc1C`, which survivor count [3] is on record?
Answer: 2 of 6

Question: For `CC(=O)N(C)c1cc(N)ccc1OCc1ccccc1`, which survivor count [6] is on record?
Answer: 3 of 6

Question: `CCCCCC(C1=NC(C)(C)CC(C)O1)c1ccccc1` (centres undefined) was tested. Which survivor count (dose: 400.0 mg/kg/injection, schedule: Q01DX009 (ip), vehicle: saline) did it give?
Answer: 6 of 6

Question: For `O=C(O)C1c2ccccc2Cc2ccccc21`, which survivor count [3] is on record?
Answer: 2 of 6

Question: `c1cncc(-c2ncnc3c2Cc2ccccc2-3)c1` was tested. Which survivor count [5] did it give?
Answer: 3 of 6

Question: For `NCC(OC1CCCCC1)C(Cl)(Cl)Cl` (centres undefined), which survivor count [9] is on record?
Answer: 2 of 6

Question: How did the survivor count (dose: 100.0 mg/kg/injection, schedule: Q04DX002 (ip), vehicle: Klucel (hydroxypropylcellulose) (HPC)) turn out when `COc1ccc(/C=C/c2nccc3ccccc23)cc1OC` was run?
Answer: 3 of 3

Question: With `N#CC(C#N)=Cc1c(Cl)cccc1Cl` as the compound, how does the survivor count (dose: 50.0 mg/kg/injection, schedule: Q01DX001 (ip), vehicle: Klucel (hydroxypropylcellulose) (HPC)) read?
Answer: 2 of 6

Question: And the survivor count (dose: 100.0 mg/kg/injection, schedule: Q01DX001 (ip), vehicle: Klucel (hydroxypropylcellulose) (HPC))?
Answer: 0 of 6

Question: And the survivor count [10]?
Answer: 1 of 6

Question: What about the survivor count [11] of the same compound?
Answer: 0 of 6

Question: For `C=CCN(CC=C)CCN1CCN(CCCN2c3ccccc3Sc3ccc(C(F)(F)F)cc32)CC1`, which survivor count (dose: 50.0 mg/kg/injection, schedule: Q01DX009 (ip), vehicle: saline) is on record?
Answer: 5 of 6

Question: What about the survivor count [8] of the same compound?
Answer: 0 of 6

Question: What about the survivor count (dose: 150.0 mg/kg/injection, schedule: Q04DX003 (ip), vehicle: saline) of the same compound?
Answer: 3 of 6

Question: And the survivor count (dose: 225.0 mg/kg/injection, schedule: Q01DX001 (ip), vehicle: saline)?
Answer: 0 of 6

Question: And the survivor count (dose: 225.0 mg/kg/injection, schedule: Q04DX003 (ip), vehicle: saline)?
Answer: 2 of 6

Question: And the survivor count (dose: 335.0 mg/kg/injection, schedule: Q04DX003 (ip), vehicle: saline)?
Answer: 0 of 6

Question: For `CC1(C)OC2COC(CN(N=O)C(N)=O)C2O1` (centres undefined), which survivor count (dose: 150.0 mg/kg/injection, schedule: Q01DX001 (ip), vehicle: saline) is on record?
Answer: 2 of 6

Question: And the survivor count (dose: 300.0 mg/kg/injection, schedule: Q01DX001 (ip), vehicle: saline)?
Answer: 0 of 6

Question: Which survivor count (dose: 400.0 mg/kg/injection, schedule: Q01DX009 (ip), vehicle: water) does the source give for `CN(C(=N)N)c1ccc(C(=O)Oc2ccc([N+](=O)[O-])cc2)cc1` here?
Answer: 0 of 6

Question: What about the survivor count (dose: 400.0 mg/kg/injection, schedule: Q04DX003 (ip), vehicle: water) of the same compound?
Answer: 2 of 6

Question: What does the source list for `O=P(c1ccco1)(c1ccco1)c1ccco1`?
Answer: survivor count (dose: 100.0 mg/kg/injection, schedule: Q04DX003 (ip), vehicle: saline with Tween-80): 5 of 6; survivor count (dose: 200.0 mg/kg/injection, schedule: Q04DX003 (ip), vehicle: saline with Tween-80): 1 of 6; survivor count [6]: 0 of 6

Question: Which survivor count [10] does the source give for `N#Cc1cc(-c2ccccc2)c[nH]c1=O` here?
Answer: 0 of 6

Question: And the survivor count [11]?
Answer: 0 of 6

Question: Which survivor count (dose: 400.0 mg/kg/injection, schedule: Q04DX002 (ip), vehicle: Klucel (hydroxypropylcellulose) (HPC)) does the source give for `Cc1n[n+]([O-])c(C)cc1[N+](=O)[O-]` here?
Answer: 1 of 3
